Measurements as given in PubChem BioAssay AID1487 (National Center for Advancing Translational Sciences (NCATS), 2009).
The list shows a part of the results. These are further read-outs of the screen, such as a control signal, another cell line or another target. No call is given for them. Most of these compounds were active or inconclusive in the main read-out, so they are no random draw. Potencies come from curve fits of mixed quality, noted in brackets.

Experiment: qHTS Assay for Modulators of Lamin A Splicing
Details: HeLa LMNA splicing GFP/RFP minigene ratio, 48 h
Summary of the method: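 Read-out is the ratio of GFP to DsRed2 object intensity, acquired by 488 nm laser-scanning cytometry on HeLa lamin A-EGFP minigene reporter cells. Compound incubation 48 hrs at 37 °C in Opti-MEM with 2% FBS; DMSO 0.5% final.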

[1] = measured here: RFP viability control channel
[2] = measured here: GFP splicing reporter channel

Row | SMILES | AC50 [1] | AC50 [2]
1 | CCOC(=O)c1csc(Nc2nc3ccc(F)cc3s2)n1 | 11.2 µM [rising, partial curve] | –
2 | CCOc1ccccc1NC(=O)C1CCCN(S(=O)(=O)c2cccc3cccnc23)C1 (configuration not stated) | 12.6 µM [rising, partial curve] | –
3 | COc1cc(/C=C(\C#N)C(=O)NC2CCCCC2C)ccc1OS(=O)(=O)c1ccc(C)cc1 (configuration not stated) | 35.5 µM [falling, single point] | 35.5 µM [falling, single point]
4 | CCCCCC(=O)N/N=C/c1ccc(N(C)C)cc1 | – | 14.1 µM [falling, partial curve, poor fit]
5 | COC(=O)c1ccc(S(=O)(=O)c2ccc(C(=O)OC)s2)s1 | 0.891 µM [falling, full curve, poor fit] | –
6 | CCc1cc(Br)ccc1N1C(=O)C2CC=CCC2C1=O (configuration not stated) | 15.8 µM [rising, single point] | –
7 | COc1ccccc1N(CC(=O)NCCSc1ccc(Cl)cc1)S(C)(=O)=O | 14.1 µM [falling, single point] | –
8 | COc1ccc(-c2cn3nc(SCC(=O)Nc4ccccc4F)ccc3n2)cc1 | 7.94 µM [rising, partial curve, poor fit] | 0.891 µM [rising, partial curve]
9 | N#CCSc1nnc(-c2sc3ccccc3c2Cl)o1 | 17.8 µM [rising, partial curve] | –
10 | Cc1ccc2nc(NC(=O)c3ccc(Cn4cc(Cl)cn4)o3)sc2c1 | 35.5 µM [rising, single point] | –
11 | CCOC(=O)c1ccc(NC(=O)Cc2coc3cc4c(cc23)CCC4)cc1 | 31.6 µM [rising, single point] | –
12 | O=c1ccc2cc(O)c(O)cc2o1 | 11.2 µM [falling, partial curve] | 10 µM [falling, partial curve, poor fit]
13 | C=C1C(=O)[C@@]23[C@H](O)C[C@@H]4C(C)(C)CC[C@H](O)[C@]4(C)[C@@H]2C[C@H](O)[C@@H]1[C@H]3O | 10 µM [rising, partial curve] | –
14 | O=[N+]([O-])c1ccc(N/N=C/c2cn(-c3ccccc3)nc2-c2ccccc2)cc1 | 15.8 µM [falling, single point] | –
15 | CCc1ccc(N2C(=O)CN(Cc3ccc(OC)c(OC)c3)C2=S)cc1 | 11.2 µM [rising, partial curve, poor fit] | –
16 | CCN(CC)c1ccc2cc(-c3nc(-c4ccccc4)no3)c(=O)oc2c1 | – | 5.62 µM [rising, single point]
17 | Cc1nc2c(-c3ccccc3)c(C)[nH]n2c(=O)c1Cl | 15.8 µM [rising, single point] | –
18 | Cc1ccc(N(CC(=O)Nc2cc(Cl)ccc2Oc2ccccc2)S(C)(=O)=O)cc1C | 15.8 µM [rising, single point] | 15.8 µM [rising, single point]
19 | CCOc1ccc(S(=O)(=O)Nc2nc3ccccc3nc2Nc2ccc(N3CCOCC3)cc2)cc1 | 25.1 µM [rising, single point] | –
20 | CCCCNC(=O)c1cnn2c(C)c(Cc3c(C)cc(C)cc3C)c(C)nc12 | 31.6 µM [falling, partial curve] | 35.5 µM [falling, partial curve]

Complete entries from above.
Cc1ccc2nc(NC(=O)c3ccc(Cn4cc(Cl)cn4)o3)sc2c1 is entered as AC50 [1]: 35.5 µM [rising, single point]
CCOC(=O)c1csc(Nc2nc3ccc(F)cc3s2)n1 is entered as AC50 [1]: 11.2 µM [rising, partial curve]

Carrying on:

Row | SMILES | AC50 [1] | AC50 [2]
21 | Brc1cc2c(cc1C1Nc3ccccc3C3C=CCC31)OCO2 (configuration not stated) | 35.5 µM [rising, single point] | –
22 | CCN1C(=O)C(CC(=O)Nc2ccc(F)cc2)N(CCc2ccc(OC)cc2)C1=S (configuration not stated) | 3.55 µM [falling, partial curve, poor fit] | –
23 | c1ccc(-n2nnnc2-c2cnc(-c3ccncc3)nc2-c2cccs2)cc1 | 1.78 µM [rising, partial curve] | –
24 | COc1cc(C)nc(Oc2ccc(OCCOc3ccccc3)nn2)n1 | 2 µM [falling, partial curve] | 3.16 µM [falling, partial curve]
25 | COc1ccc(/C=C/C(=O)N(C)c2ccccc2C(=O)O)cc1 | 3.98 µM [rising, partial curve, poor fit] | 0.0141 µM [rising, full curve, poor fit]
26 | Cc1nc2sc(C(c3ccco3)N3CCN(C(c4ccccc4)c4ccccc4)CC3)c(O)n2n1 (configuration not stated) | 11.2 µM [falling, single point] | 35.5 µM [falling, single point]
27 | Nc1nc2ccccc2n1/N=C/c1ccc([N+](=O)[O-])s1 | – | 35.5 µM [falling, single point]
28 | Cc1c2cn[nH]c(=O)c2c(C)n1Cc1ccc(F)cc1 | 35.5 µM [rising, single point] | –
29 | Fc1ccc(NC(=S)NN2CCOCC2)cc1Cl | 17.8 µM [rising, partial curve, poor fit] | 20 µM [rising, partial curve, poor fit]
30 | COc1ccc(OC)c(NC(=O)c2cccc(S(=O)(=O)N(Cc3ccccc3)c3ccccc3OC)c2)c1 | 14.1 µM [rising, single point] | –
31 | CCC(=O)Nc1nnc(SCC(=O)NCCc2ccc(OC)c(OC)c2)s1 | 0.794 µM [rising, full curve, poor fit] | 0.891 µM [rising, full curve, poor fit]
32 | COC(=O)c1sccc1S(=O)(=O)N(CC(=O)Nc1cc(C)cc(C)c1)c1ccc(Cl)cc1 | 11.2 µM [rising, partial curve, poor fit] | –
33 | CC(C)C(=O)Nc1cccc(C(=O)Nc2nncs2)c1 | 0.00794 µM [falling, full curve, poor fit] | –
34 | CCCCc1ccc(NC(=S)NCc2cccnc2)cc1 | 31.6 µM [rising, single point] | –
35 | COc1cccc(C2c3c(oc4ccccc4c3=O)C(=O)N2CCCN(C)C)c1OC (configuration not stated) | 0.0708 µM [falling, full curve, poor fit] | –
36 | C=CCNc1ccc(N2C(=O)C3CCC(C)CC3C2=O)cc1[N+](=O)[O-] (configuration not stated) | – | 35.5 µM [falling, single point]
37 | CC(/C=N/NC(=O)CSc1nc2ccccc2n1C)=C\c1ccco1 | 15.8 µM [rising, single point] | –
38 | CCOc1ccc2nc(SCC#N)c(C#N)cc2c1 | – | 0.0316 µM [falling, full curve, poor fit]
39 | S=C(NCCC(c1ccccc1)c1ccccc1)Nc1cccc(Cl)c1 | 15.8 µM [falling, single point] | 0.0316 µM [falling, single point]
40 | Cc1nc2ccc(S(=O)(=O)NCC(=O)N3CCC(C)CC3)cc2s1 | 17.8 µM [rising, single point] | –

Grouped by structure, the compounds so far containing a nitro group on carbon
Row | SMILES | AC50 [1] | AC50 [2]
14 | O=[N+]([O-])c1ccc(N/N=C/c2cn(-c3ccccc3)nc2-c2ccccc2)cc1 | 15.8 µM [falling, single point] | –
27 | Nc1nc2ccccc2n1/N=C/c1ccc([N+](=O)[O-])s1 | – | 35.5 µM [falling, single point]
36 | C=CCNc1ccc(N2C(=O)C3CCC(C)CC3C2=O)cc1[N+](=O)[O-] (configuration not stated) | – | 35.5 µM [falling, single point]

(further entries)

Row | SMILES | AC50 [1] | AC50 [2]
41 | Cn1c(-c2ccccc2)c[n+]2c1-c1ccccc1C2 | 7.08 µM [rising, full curve] | –
42 | CC(=O)Nc1ccc(NC(=O)CN2C(=O)CCc3cc(S(=O)(=O)N4CCCCC4)ccc32)cc1 | – | 0.0316 µM [rising, full curve, poor fit]
43 | N#CCCn1nc(-c2ccccc2)cc1Nc1ccccc1NC(=O)c1cccs1 | 8.91 µM [rising, partial curve] | –
44 | O=c1c(-c2ccc(F)cc2)nc2cnc(Oc3ccccc3)nc2n1Cc1cccs1 | – | 17.8 µM [falling, partial curve, poor fit]
45 | COCC1CCN(c2nc3nonc3nc2N2CCSCC2)C1 (configuration not stated) | 0.0141 µM [falling, full curve, poor fit] | 0.0126 µM [falling, full curve, poor fit]
46 | O=C(Nc1ccc(F)cc1)Nc1nnc(SCC(=O)N2CCCCC2)s1 | 39.8 µM [falling, partial curve, poor fit] | –
47 | COc1ccccc1CNc1ccnc(-c2ccccc2OC)n1 | – | 3.16 µM [falling, partial curve, poor fit]
48 | CC1CN(Cc2ccccn2)CCC1=O (configuration not stated) | 0.0447 µM [rising, full curve, poor fit] | –
49 | COc1ccc(/C=N/n2c(SC)nnc2-c2ccccc2)cc1C | 35.5 µM [rising, single point] | 35.5 µM [rising, single point]
50 | Cc1ccc(S(=O)(=O)N(C)Cc2ccc(C(=O)N/N=C3\CCCC(=O)C3)cc2)cc1 | 35.5 µM [rising, single point] | 35.5 µM [rising, single point]
51 | NC(=O)CC[C@@H]1NC(=O)[C@@H]2CCCN2C(=O)c2cc([N+](=O)[O-])cc(F)c2NCCC[C@@H](C(N)=O)NC1=O | – | 6.31 µM [falling, partial curve, poor fit]
52 | Cc1cc(O)c2c(c1)C(=O)c1cccc(O)c1C2=O | – | 0.224 µM [falling, full curve, poor fit]
53 | COc1ccc(CC(=O)OC(C)CN2CCOCC2)cc1 (configuration not stated) | – | 20 µM [rising, single point]
54 | COc1ccc(N2CCN(C(c3cccc(OC)c3OC)c3nnnn3C3CCCC3)CC2)cc1 (configuration not stated) | 4.47 µM [rising, partial curve] | –
55 | CC(=O)N1c2ccccc2CC1C(=O)N1CCN(c2cc(Cl)ccc2C)CC1 (configuration not stated) | – | 35.5 µM [falling, single point]
56 | COc1cccc(/C=C/c2nc3ccccc3c(=O)n2-c2ccc(C)c(C)c2)c1OC | – | 35.5 µM [falling, partial curve, poor fit]
57 | C/C(=N\NC(=S)Nc1ccc(C)cc1)c1cccc(N)c1 | 1.12 µM [falling, partial curve, poor fit] | –
58 | C=C1c2cc(C)ccc2NC(=O)N1c1ccccc1 | – | 4.47 µM [falling, single point]
